Test results as given in KR20230128271A.
No constants are given. Whether binding was seen depends on the method and setting. Some binding calls cover weakened binding; strength is not graded here.

Sequences of proteins named here, by UniProt entry; tags and fusion partners are left off. A change or cut given only in a name is not applied to a line headed by its entry.
UniProt P21860: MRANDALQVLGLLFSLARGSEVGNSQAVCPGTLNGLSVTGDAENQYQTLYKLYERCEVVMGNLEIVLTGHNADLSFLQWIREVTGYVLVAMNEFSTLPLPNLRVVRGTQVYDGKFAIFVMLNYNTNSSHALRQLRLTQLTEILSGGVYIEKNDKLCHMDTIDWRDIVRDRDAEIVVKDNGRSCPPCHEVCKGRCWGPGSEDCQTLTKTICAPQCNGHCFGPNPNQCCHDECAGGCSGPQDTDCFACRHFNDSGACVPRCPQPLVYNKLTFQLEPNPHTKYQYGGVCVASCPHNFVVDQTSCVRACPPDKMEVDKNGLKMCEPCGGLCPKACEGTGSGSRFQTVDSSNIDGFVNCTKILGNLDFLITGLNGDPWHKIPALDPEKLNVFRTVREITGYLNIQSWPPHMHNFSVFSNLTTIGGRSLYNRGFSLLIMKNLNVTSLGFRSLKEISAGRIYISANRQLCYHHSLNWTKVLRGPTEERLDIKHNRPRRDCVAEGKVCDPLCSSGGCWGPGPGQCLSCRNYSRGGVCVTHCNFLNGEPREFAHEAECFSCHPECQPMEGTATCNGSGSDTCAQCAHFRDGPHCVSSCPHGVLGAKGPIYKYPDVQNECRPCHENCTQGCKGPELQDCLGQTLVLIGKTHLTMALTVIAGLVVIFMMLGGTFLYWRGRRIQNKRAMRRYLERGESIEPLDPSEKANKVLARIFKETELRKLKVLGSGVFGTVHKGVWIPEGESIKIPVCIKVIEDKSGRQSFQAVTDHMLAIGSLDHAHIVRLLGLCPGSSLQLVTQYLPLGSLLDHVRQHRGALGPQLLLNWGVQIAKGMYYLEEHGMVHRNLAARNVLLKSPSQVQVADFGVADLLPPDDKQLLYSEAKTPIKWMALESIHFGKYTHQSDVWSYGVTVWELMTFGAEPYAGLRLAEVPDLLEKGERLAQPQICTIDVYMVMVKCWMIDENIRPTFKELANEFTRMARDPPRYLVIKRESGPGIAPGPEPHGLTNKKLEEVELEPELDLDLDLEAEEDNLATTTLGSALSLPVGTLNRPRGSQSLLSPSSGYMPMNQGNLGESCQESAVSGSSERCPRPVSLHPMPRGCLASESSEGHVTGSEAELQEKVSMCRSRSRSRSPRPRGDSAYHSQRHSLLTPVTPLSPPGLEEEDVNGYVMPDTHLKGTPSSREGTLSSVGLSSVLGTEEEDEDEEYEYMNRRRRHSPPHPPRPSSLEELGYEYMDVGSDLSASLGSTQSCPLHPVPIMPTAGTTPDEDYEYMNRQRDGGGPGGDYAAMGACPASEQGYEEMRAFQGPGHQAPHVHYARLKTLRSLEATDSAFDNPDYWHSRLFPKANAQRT

Target: human recombinant HER3 (coated on ELISA plate) (human) (UniProt P21860)
Experiment: ELISA on coated human recombinant HER3

B1: anti-HER3 IgG monoclonal antibody consisting of heavy chain SEQ ID NO: 77 and light chain SEQ ID NO: 78 (unmodified) (antibody, V domains shown)
VH: QVQLVESGGGLVKPGGSLRLSCAASGFTFSDYAMSWIRQAPGKGLEWVSTISDGGTYTYYPDSVKGRFTISRDNAKNSLYLQMNSLRAEDTAVYYCAREWGDYDGFDYWGQGTLVTVSS
VL: DIQMTQSPSSLSASVGDRVTITCRASQEISGYLSWYQQKPGKAPKRLIYAASTLDSGVPSRFSGSGSGTEFTLTISSLQPEDFATYYCLQYDSYPYTFGQGTKLEIKR
binding: binds
